This data set in a line: general procedure: solution-phase peptide synthesis; HATU/DIEA; EDCI/HOBt or EDCI/HOPO with 2,6-lutidine. As to conditions: late stage modification step, 210 nm.

As to “(S)—N-((3R,4S,5S)-1-((S)-2-((1R,2R)-3-(((S)-1-(4-aminophenyl)-3-cyanopropan-2-yl)amino)-1-methoxy-2-methyl-3-oxopropyl) pyrrolidin-1-yl)-3-methoxy-5-methyl-1-oxoheptan-4-yl)-2-((S)-2-(dimethylamino)-3-methylbutanamido)-N,3-dimethylbutanamide”, the “final HPLC purity” value was 99.3%.

Source of the values: patent US20250049937A1 (priority 2021, published 2025).
